# Patent US5965787A, “HLA-DRBI peptides with specific binding affinity for HLA-DQ molecules: prevention and treatment of rheumatoid arthritis” (Mayo Foundation for Medical Education and Research, priority 1995, dated 1999)
# At least one peptide structure holds a part that was inferred or is arguable (an end, a ring closure or a residue). No end group written: not given here.
# System: lymph node cells from B10.RQB3-DRB1*1502 positive and negative littermates (H-2A^q)
# Assay: T cell proliferation assay, lymph node cells of immunized B10.RQB3 mice
# Assay type: cell-based, mouse
# Details: mice immunized with 200 μg HII 250-270 in CFA; in vitro HII 250-270 4, 20, 100 μg/ml; PPD 20, LPS 40, Con A 10 μg/ml; FIG. 2
sequence,measurement,value
"GPKGQTGKPGIAGFKGEQGPK [HII 250-270, GPKGQTGKPGIAGFKGEQGPK]",T cell response of DRB1*1502 transgene positive animals compared with negative littermates / B10.RQB3 controls,dramatic reduction in the T cell response
